Measurements published in publication PMC7261910.

By UniProt entry, the sequences of proteins in these tests, tags left out. Residues count along the entry.
UniProt Q5L747: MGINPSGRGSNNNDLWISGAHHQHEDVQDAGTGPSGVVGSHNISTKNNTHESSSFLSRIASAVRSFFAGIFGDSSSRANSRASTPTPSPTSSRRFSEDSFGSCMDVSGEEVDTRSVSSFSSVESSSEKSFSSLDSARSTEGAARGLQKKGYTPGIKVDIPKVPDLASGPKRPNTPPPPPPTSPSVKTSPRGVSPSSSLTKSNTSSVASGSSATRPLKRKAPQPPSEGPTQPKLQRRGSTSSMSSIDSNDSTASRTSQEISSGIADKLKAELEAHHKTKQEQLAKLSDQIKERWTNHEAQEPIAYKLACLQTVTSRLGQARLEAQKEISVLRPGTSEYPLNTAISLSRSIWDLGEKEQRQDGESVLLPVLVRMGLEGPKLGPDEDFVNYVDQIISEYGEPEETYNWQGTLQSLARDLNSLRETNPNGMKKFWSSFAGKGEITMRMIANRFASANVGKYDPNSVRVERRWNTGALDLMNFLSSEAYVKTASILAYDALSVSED
UniProt P02545, residues 1-646: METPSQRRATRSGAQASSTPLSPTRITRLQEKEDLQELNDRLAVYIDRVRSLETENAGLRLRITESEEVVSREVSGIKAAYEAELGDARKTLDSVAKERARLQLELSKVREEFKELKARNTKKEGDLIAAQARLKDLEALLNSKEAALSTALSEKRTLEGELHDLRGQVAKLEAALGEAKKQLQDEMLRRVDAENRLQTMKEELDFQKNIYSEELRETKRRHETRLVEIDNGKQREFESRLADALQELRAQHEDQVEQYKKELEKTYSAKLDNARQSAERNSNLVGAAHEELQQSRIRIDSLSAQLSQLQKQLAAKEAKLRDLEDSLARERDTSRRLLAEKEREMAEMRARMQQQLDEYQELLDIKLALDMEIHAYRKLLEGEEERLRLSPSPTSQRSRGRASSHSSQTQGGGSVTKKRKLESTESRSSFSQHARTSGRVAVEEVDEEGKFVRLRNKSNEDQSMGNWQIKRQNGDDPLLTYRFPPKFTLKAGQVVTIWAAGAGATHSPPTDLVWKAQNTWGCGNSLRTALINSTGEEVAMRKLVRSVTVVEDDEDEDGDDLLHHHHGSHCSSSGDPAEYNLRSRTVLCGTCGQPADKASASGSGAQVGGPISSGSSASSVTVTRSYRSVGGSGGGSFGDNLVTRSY

B1: C. abortus chaperone DnaK (heat shock protein 70, HSP70) (protein, UniProt Q8GH79 1-659)
chain: MSEQKKSSKIIGIDLGTTNSCVSVMEGGQAKVIVSSEGTRTTPSIVAFKGNETLVGIPAKRQAVTNPAKTLASTKRFIGRKYSEVESEIKTVPYQVASGSNGDVVFPIDGKQFTPEEIGAQVLIKMKETAEAYLGEPVTEAVITVPAYFNDSQRASTKDAGRIAGLDVKRIIPEPTAAALAYGIDKAGDKKIAVFDLGGGTFDISILEIGDGVFEVLSTNGDTHLGGDDFDEVIIKWMIEEFQKQEGIDLSKDNMALQRLKDAAEKAKIELSGMSSTEINQPFITMDANGPKHLTLTLTRAHFEKLASNLIERTKAPCQKALADAKLAASDIDDVLLVGGMSRMPAVQEVVKSIFGKEPNKGVNPDEVVAIGAAIQGGVLGGEVKDVLLLDVIPLSLGIETLGGVMTPLVERNTTIPTQKKQIFSTAADNQPAVTIVVLQGERPMAKDNKEIGRFDLTDIPPAPRGHPQIEVTFDIDANGILHVSAKDAASGREQKIRIEASSGLKEDEIQRMINDAEKNKEEDKKRREASDVRNEADSMIFRAEKAISDYKENIPESLTKEIEERIEKVRSALKEDAPTEKIKEASDELSRHMQKIGEAMQSQSASAAANAQDGPNINTEDLKKHSFSTKPPTGNSSSSANNENIEEADVEIVDKPND

Columns and labels:
[1] = target: recombinant His-tagged CAB063 (Chlamydia abortus) (UniProt Q5L747); test: affinity purification with mass spectrometry; only the target purified
[2] = target: CAB063 of Chlamydia abortus S26/3, as made by the bacteria in experimentally infected HeLa cells (Chlamydia abortus S26/3 (endogenous in the bacteria that infect the HeLa cells)) (UniProt Q5L747); test: affinity purification with mass spectrometry

Molecule | binding [1] | binding [2]
human lamin A/C (pre-lamin A/C) (from UniProt P02545 1-646) | binds | –
B1 | – | binds

These are yes or no findings as the source states them, for the method shown. Binding seen in cells or lysates may run through a third protein. A yes stands for co-enrichment or nearness to the bait. Other partners may have been found.
